Test system: emulsion particles
Test: Control emulsion binding assays without compounds
Conditions: second line headed Mean; n = 9
Procedure: Preparation of emulsion particles. Triolein (160 mg) and L-alpha-Phosphatidylcholine (40 mg) are combined and dried under nitrogen. After the addition of 8 mls of buffer (10 mM Tris, 100 mM KCl, 1 mM EDTA, pH 8.0), the mixture is sonicated in a water bath to obtain a heterogeneous mix of emulsion particles. The particles are harvested by ultracentrifugation (TLA 100.2 rotor, 30,000 rpm for 30 minutes) and the subsequent lipid cake is removed by tube slicing and resuspended in 100 μt 20 mM Phosphate Buffer (PB). Triolein and phospholipid content are measured and total emulsion particle concentration is determined.
Radiolabelling Freshly denatured and renatured Apolipoprotein E3 and E4 are radiolabelled using Bolton-Hunter Reagent [^125I] (ICN). Specific Activity is determined using Lowry method and Gamma 8000 counter.
Binding Affinity Assay. […] In glass tubes, 25 μg of protein (with iodinated tracer) was reduced with 1% β-mercaptoethanol. Two hundred and fifty μg of emulsion particles and 2.5 μl of compound (10 mM stock) were added and the final mixture was brought up to 250 μl with 20 mM phosphate buffer (PB). The reaction mixture was then incubated in a 37° C. water bath for 2 hours before being transferred to 1.5 ml ultracentrifuge tubes. […] These fractions were then combined with the respective half of the actual tube and counted using a Gamma-8000.

Substance | Mean
apoE3: human apolipoprotein E3 isoform, also iodinated | 92%
apoE4: human apolipoprotein E4 isoform, also iodinated | 88%
